In patent US7981915B2, “Methods for modulating PPAR biological activity for the treatment of diseases caused by mutations in the CFTR gene” (Beth Israel Deaconess Medical Center, priority 2003, dated 2011):

Tested on: TNFα
Assay: Liver TNFα levels by sandwich ELISA
Type: in vivo, mice

dextran sodium sulfate [DSS]
liver TNFα levels, with versus without DSS (WT mice): no difference | liver TNFα levels, absence versus presence of DSS (cftr−/− mice): no statistically significant difference
